{"source": "the supplement of paper PMC8104966", "note": "Some of the results follow. This data set is noisy: repeats of one test often differ as much as different tests do.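 U2OS cells expressing ACE2 were combined with U2OS cells expressing full-length spike, and imaging quantified fusion as the fraction of nuclei displaying both cell types' fluorescent markers. Non-toxic compounds with a fusion z-score under -3, i.e., over three standard deviations below the plate's DMSO wells, are called inhibitory hits.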"}
{"system": "U2OS ACE2 x SARS-CoV-2 spike co-culture", "test": "cell-cell fusion (fraction fused) z-score vs plate DMSO control; higher = more fusion", "settings": "30 µM; 5 h; toxicity class: non-toxic, passed QC"}
{"smiles": "C[C@@H](N)Cc1c[nH]cn1.Cl.Cl", "note": "[Histamine, R(-)-alpha-methyl-, dihydrochloride]", "cell-cell fusion (z-score)": "inactive: 2.47"}
{"smiles": "C=CCSCC=C", "cell-cell fusion (z-score)": "inactive: 1.91"}
{"smiles": "COc1cc2c(cc1OC)CC(=O)N(CCCN(C)C[C@H]1Cc3cc(OC)c(OC)cc31)CC2.Cl", "note": "[Ivabradine hydrochloride]", "cell-cell fusion (z-score)": "inactive: 2.07"}
{"smiles": "COc1c2ccoc2nc2c(OC)c(OCC(O)C(C)(C)O)ccc12", "note": "(stereo unspecified)", "cell-cell fusion (z-score)": "inactive: 2.35"}
{"smiles": "Nc1nc2[nH]c(=O)cnc2c(=O)[nH]1", "note": "[Isoxanthopterin]", "cell-cell fusion (z-score)": "inactive: 2.58"}
{"smiles": "NCCS(=O)O", "note": "[Hypotaurine]", "cell-cell fusion (z-score)": "inactive: 2.11"}
{"smiles": "O=C1c2ccc(O)c(O)c2C(=O)c2c(O)ccc(O)c21", "cell-cell fusion (z-score)": "inactive: 2.78"}
{"smiles": "COc1cc2nc(N3CCN(C(=O)C4CCCO4)CC3)nc(N)c2cc1OC.Cl", "note": "(stereo unspecified) [Terazosin hydrochloride]", "cell-cell fusion (z-score)": "inactive: 2.66"}
{"smiles": "CC(=O)NNC(=O)N1Cc2ccccc2Oc2ccc(Cl)cc21", "cell-cell fusion (z-score)": "inactive: 1.25"}
{"smiles": "CCCc1nn(C)c2c(=O)[nH]c(-c3cc(S(=O)(=O)N4CCN(C)CC4)ccc3OCC)nc12.O=C(O)CC(O)(CC(=O)O)C(=O)O", "note": "[Sildenafil citrate salt]", "cell-cell fusion (z-score)": "inactive: 1.72"}
{"smiles": "C=CCc1ccc(O)c(OC)c1", "cell-cell fusion (z-score)": "inactive: 0.484"}
{"smiles": "C[C@]12CCC(=O)C=C1CC[C@@H]1[C@@H]2[C@@H](O)C[C@@]2(C)[C@H]1CC[C@]2(O)C(=O)CO", "note": "[Hydrocortisone]", "cell-cell fusion (z-score)": "inactive: 1.99"}
{"smiles": "CCCc1nc(C(C)(C)O)c(C(=O)O)n1Cc1ccc(-c2ccccc2-c2nn[nH]n2)cc1", "cell-cell fusion (z-score)": "inactive: 3.78"}
{"smiles": "O=C1[C@H](CCC(O)c2ccc(F)cc2)[C@@H](c2ccc(O)cc2)N1c1ccc(F)cc1", "note": "(stereo partly specified)", "cell-cell fusion (z-score)": "inactive: -1.41"}
{"smiles": "CC(C)COC(=O)c1ccc(N)cc1", "cell-cell fusion (z-score)": "inactive: 2.22"}
{"smiles": "O=C(O)[C@]1(Cc2cccc(Nc3nccs3)n2)CC[C@@H](Oc2cccc(Cl)c2F)CC1", "cell-cell fusion (z-score)": "inactive: 2.17"}
{"smiles": "COC(=O)C1=C(C)NC(C)=C(C(=O)OC)C1c1ccccc1[N+](=O)[O-]", "note": "[Nifedipine]", "cell-cell fusion (z-score)": "inactive: 0.598"}
{"smiles": "COc1cc2nccc(Oc3ccc(NC(=O)Nc4cc(C)on4)c(Cl)c3)c2cc1OC", "note": "[Tivozanib (AV-951)]", "cell-cell fusion (z-score)": "inactive: 1.39"}
{"smiles": "O=C(Nc1c(Cl)cncc1Cl)c1ccc(OC(F)F)c(OCC2CC2)c1", "note": "[Roflumilast]", "cell-cell fusion (z-score)": "inactive: 0.0496"}
{"smiles": "CC(C)/N=c1\\cc2n(-c3ccc(Cl)cc3)c3ccccc3nc-2cc1Nc1ccc(Cl)cc1", "cell-cell fusion (z-score)": "inactive: 2.32"}
{"smiles": "CNc1ccccc1C(=O)N1CCc2c([nH]c3ccccc23)C1=O", "cell-cell fusion (z-score)": "inactive: 3.64"}
{"smiles": "O=C(CCc1ccc(O)cc1)c1c(O)cc(O)cc1O", "note": "[Phloretin (Dihydronaringenin)]", "cell-cell fusion (z-score)": "inactive: 1.41"}
{"smiles": "CC(C)C[C@H](NC(=O)CNC(=O)c1cc(Cl)ccc1Cl)B1OC(=O)CC(CC(=O)O)(C(=O)O)O1", "note": "(stereo partly specified)", "cell-cell fusion (z-score)": "inactive: 4.45"}
{"smiles": "CC[N+](CC)(CC)CCOc1ccc(/C=C/c2ccccc2)cc1.[I-]", "cell-cell fusion (z-score)": "inactive: -0.208"}
{"smiles": "CC(C)(C)c1cc(C(C)(C)C)c2c(c1)C(O)(C(F)(F)F)C(=O)O2", "note": "(racemic)", "cell-cell fusion (z-score)": "inactive: 2.11"}
{"smiles": "CC1=C(CC(=O)O)c2cc(F)ccc2/C1=C\\c1ccc(S(C)=O)cc1", "note": "(stereo unspecified) [Sulindac]", "cell-cell fusion (z-score)": "inactive: 2.72"}
{"smiles": "CC(C)Nc1cccnc1N1CCN(C(=O)c2cc3cc(NS(C)(=O)=O)ccc3[nH]2)CC1.CS(=O)(=O)O", "note": "[Delavirdine]", "cell-cell fusion (z-score)": "inactive: 3.28"}
{"smiles": "CCN(CC)CC#CCOC(=O)C(O)(c1ccccc1)C1CCCCC1", "note": "(stereo unspecified) [Oxybutynin]", "cell-cell fusion (z-score)": "inactive: 2.37"}
{"smiles": "Cc1nc(NC(=O)N2CCC[C@H]2C(N)=O)sc1-c1ccnc(C(C)(C)C(F)(F)F)c1", "cell-cell fusion (z-score)": "active: -4.91"}
{"smiles": "C/C(=C\\C(=O)Nc1ccccc1C(=O)O)c1ccc2ccccc2c1", "cell-cell fusion (z-score)": "inactive: 1.75"}
{"smiles": "O=C1NCCc2[nH]c(-c3ccncc3)cc21", "cell-cell fusion (z-score)": "inactive: 2.26"}
{"smiles": "N#C/C(=C(/N)Sc1ccc(N)cc1)c1ccccc1C(F)(F)F", "cell-cell fusion (z-score)": "inactive: 0.173"}
{"smiles": "CC[C@H]1OC(=O)[C@H](C)[C@@H](O[C@H]2C[C@@](C)(OC)[C@@H](O)[C@H](C)O2)[C@H](C)[C@@H](O[C@@H]2O[C@H](C)C[C@H](N(C)C)[C@H]2O)[C@](C)(O)C[C@@H](C)CN(C)[C@H](C)[C@@H](O)[C@]1(C)O.O.O", "note": "[Azithromycin dihydrate]", "cell-cell fusion (z-score)": "inactive: 3.35"}
{"smiles": "NC(=O)c1cccc(-c2cc(Nc3ccc(OC(F)(F)F)cc3)ncn2)c1", "cell-cell fusion (z-score)": "active: -9.38"}
{"smiles": "CC(C)Cn1c(=O)n(C)c(=O)c2[nH]cnc21", "note": "[3-Isobutyl-1-methylxanthine]", "cell-cell fusion (z-score)": "inactive: 2.18"}
{"smiles": "CC(C)Cn1c(=O)n(C)c(=O)c2[nH]cnc21", "cell-cell fusion (z-score)": "inactive: 0.745"}
{"smiles": "N#CC[C@@H](C1CCCC1)n1cc(-c2ncnc3[nH]ccc23)cn1", "cell-cell fusion (z-score)": "inactive: -1"}
{"smiles": "CNC(=O)[C@H]1O[C@@H](n2cnc3c(NCc4cccc(I)c4)ncnc32)C(O)[C@H]1O", "note": "(stereo partly specified)", "cell-cell fusion (z-score)": "inactive: 0.85"}
{"smiles": "CN1CCN(C(=O)O[C@H]2c3nccnc3C(=O)N2c2ccc(Cl)cn2)CC1", "cell-cell fusion (z-score)": "inactive: 3.74"}
{"smiles": "CC(C)Nc1ncccn1", "cell-cell fusion (z-score)": "inactive: 0.78"}
{"smiles": "C#C[C@]1(OC(C)=O)CC[C@H]2[C@@H]3CCC4=C/C(=N/O)CC[C@@H]4[C@H]3CC[C@@]21CC", "note": "[Norgestimate]", "cell-cell fusion (z-score)": "active: -5.46"}
{"smiles": "O=c1cc(-c2ccccc2)oc2cccc(O)c12", "cell-cell fusion (z-score)": "inactive: 1.92"}
{"smiles": "CC1CC(OC(=O)C(O)c2ccccc2)CC(C)(C)C1", "note": "(stereo unspecified)", "cell-cell fusion (z-score)": "inactive: 1.09"}
{"smiles": "C[C@@H](N)[C@@H](O)c1ccccc1.Cl", "cell-cell fusion (z-score)": "inactive: 0.809"}
{"smiles": "COc1ccc(NC(=O)c2ccc(C(=N)N(C)C)cc2)c(C(=O)Nc2ccc(Cl)cn2)c1", "note": "[Betrixaban]", "cell-cell fusion (z-score)": "inactive: 0.144"}
{"smiles": "CC(=O)OCC(=O)[C@@]1(O)[C@H](C)CC2C3CCC4=CC(=O)C=C[C@]4(C)[C@@]3(F)[C@@H](O)C[C@@]21C", "note": "(stereo partly specified)", "cell-cell fusion (z-score)": "inactive: 1.3"}
